# Values joined by “and” are separate entries in the source; they are usually repeats but may differ in a detail not shown here. Equal entries are not always repeated. This continues a long series; more values of the same kind are listed elsewhere.
# System: mice, spared nerve injury (SNI) model
# Experiment: SNI model of neuropathic pain, von Frey, single s.c. dose, male mice day 7
# Type: in vivo, mouse
# Conditions: for paw withdrawal threshold (von Frey), individual mice: SNI day 7, listed as Myr
# Protocol: Induction of neuropathic pain (SNI model).
# The initial SNI pain experiment (Figure 4A) was performed by Phenotype Expertise, Marseilles, France – Pain and CNS behaviour CRO under supervision of Stéphane Gaillard, PhD (CEO). Surgery was performed on 8-week-old C57BL/6J male mice (Charles River). The spared nerve injury surgery was performed on anaesthetized mice with a buprenorphine […]
# solution (0.05 mg/kg) injected s.c. 30 min before surgery (10 μL/g). For surgery, mice were anaesthetised with ketamine (100 mg/kg, i.p.) and xylazine (10 mg/kg, i.p.) (volume 10 µL/g) with 100 μL of 1% xylocaine solution infiltrated at the site of the incision. The distal trifurcation of the sciatic nerve was identified, and the tibial and common peroneal branches were ligated with polypropylene nonabsorbable 6-0 sutures (Ethicon) and 1 mm was cut out, leaving the sural branch intact. The wound was closed with sutures, and the animals were allowed to recover and returned to their cages. Two subcutaneous injections of buprenorphine (0.05 mg/kg) were performed with an 8 to 12 hours delay decreasing pain due to the surgery […]
# act. seven days post-surgery, a decrease of threshold response to von Frey filaments of […]
# ipsilateral hind-paw was confirmed by von Frey filaments, corresponding to neuropathic pain […]
# condition. The mechanical threshold response of the operated mice was measured with […]
# calibrated von Frey filaments (“up/down” method) and the 50% threshold (g) was calculated.
# The remaining SNI pain experiments were performed in-house using the following procedure.
# SNI surgery was performed on the left hindleg of C57BL/6J male and female mice (Janvier, France) under 2% isoflurane anaesthesia. Skin on the lateral surface was incised between hip and knee followed by lengthwise division of the biceps femoris muscle leading to exposure of the three branches of the sciatic nerve. Sural branch was left intact, while the peroneal and tibial branches were ligated with a single surgical knot and axotomized distally of the ligation.
# Wounds were closed with surgical glue or medical clips and animals were monitored daily for signs of stress or discomfort, but in all cases recovered uneventfully.
# Induction of Diabetic neuropathy (STZ model).
# Diabetes was induced by a single i.p. injection of […] streptozocin (STZ) solution (100 μL/10 g, Sigma-Aldrich S0130, batch #WXBB7152V) in male seven-week-old C57BL/6J (Charles River) mice. Glycemia was tested before, and seven days after injection. All injected mice had blood glucose concentration >350 mg/dL from day seven and were used for analgesic testing of the compounds from day 14. One mouse had to be euthanized at seven days post injection. This experiment was performed by Phenotype Expertise, Marseilles, France - Pain and CNS behaviour CRO under supervision of Stéphane Gaillard, PhD (CEO).
# Induction of cancer induced bone pain (CIBP model).
# Osteosarcoma cell line NCTC 2472 (American Type Culture Collection, CCL-11TM) was cultured for two weeks prior to surgery in NCTC-135 medium (Sigma-Aldrich, Denmark) supplemented with sodium hydrogen carbonate and 10% equine serum (Sigma-Aldrich, Denmark). On the day of surgery, cells were washed with PBS and incubated with 3 mL trypsin-EDTA for five min followed by centrifugation (2800 rpm, 3 min). Supernatant was removed, and cell pellet resuspended in PBS to obtain a cell density of 10^7 cells/mL.
# Two separate cohorts of female C3H/HeNHsd mice (Envigo, Netherlands) of 7-8 weeks, were anaesthetized with 6.25 mg/kg xylazine (Rompun vet, 20 mg/mL, Bayer, KVP Pharma + Veterinär Produkte GmbH, Germany, Batch: KV02BHF) and 43.75 mg/kg ketamine (Ketaminol vet, 100 mg/mL, MSD Animal Health, AN Boxmeer, The Netherlands, Batch:
# A140A01) and received 1.0-1.2% isoflurane (1000 mg/g isoflurane, Attane vet, ScanVet, Piramal Critical Care Ltd., UK, Batch: G123J18B) during surgery. The mouse was placed on a 37 °C heating pad. Both hind legs were shaved, and a small horizontal incision was made […]
smiles,measurement,setting,value
"CCCCCCCCCCCCCC(=O)N(CCOCCOCCC(=O)N[C@@H](Cc1c[nH]cn1)C(=O)N[C@@H](Cc1c[nH]c2ccccc12)C(=O)N[C@@H](CC(C)C)C(=O)N[C@@H](CCCCN)C(=O)N[C@H](C(=O)O)C(C)C)CCOCCOCCC(=O)N[C@@H](Cc1c[nH]cn1)C(=O)N[C@@H](Cc1c[nH]c2ccccc12)C(=O)N[C@@H](CC(C)C)C(=O)N[C@@H](CCCCN)C(=O)N[C@H](C(=O)O)C(C)C [mPD5, myristoyl-NPEG4-(HWLKV)2]","paw withdrawal threshold (von Frey), individual mice","s.c. 2 μmol/kg, contralateral paw, 1 h",0.674 and 0.829 (2×) and 0.539 and 1.019 and 0.68
same,"paw withdrawal threshold (von Frey), individual mice","s.c. 2 μmol/kg, contralateral paw, 2 h",0.829 and 0.891 and 0.323 and 0.551 and 0.387 and 0.68
same,"paw withdrawal threshold (von Frey), individual mice","s.c. 2 μmol/kg, contralateral paw, 3 h",1.149 and 2.127 and 0.68 and 0.356 and 0.457 and 0.219
same,"paw withdrawal threshold (von Frey), individual mice","s.c. 2 μmol/kg, contralateral paw, 4 h",0.349 and 1.09 and 0.565 and 0.939 and 0.68 and 0.674
same,"paw withdrawal threshold (von Frey), individual mice","s.c. 2 μmol/kg, contralateral paw, 6 h",0.939 and 0.674 and 0.683 and 0.539 and 0.398 and 0.769
same,"paw withdrawal threshold (von Frey), individual mice","s.c. 2 μmol/kg, ipsilateral paw, 1 h",0.398 and 0.445 and 0.162 and 0.323 and 0.145 and 0.219
same,"paw withdrawal threshold (von Frey), individual mice","s.c. 2 μmol/kg, ipsilateral paw, 2 h",0.356 (2×) and 0.07 and 0.195 and 0.219 and 0.107
same,"paw withdrawal threshold (von Frey), individual mice","s.c. 2 μmol/kg, ipsilateral paw, 3 h",0.356 and 0.145 and 0.038 and 0.07 and 0.132 and 0.219
same,"paw withdrawal threshold (von Frey), individual mice","s.c. 2 μmol/kg, ipsilateral paw, 4 h",0.195 and 0.07 (2×) and 0.079 and 0.107 and 0.074
same,"paw withdrawal threshold (von Frey), individual mice","s.c. 2 μmol/kg, ipsilateral paw, 6 h",0.07 (4×) and 0.162 and 0.132
same,"paw withdrawal threshold (von Frey), individual mice","s.c. 10 μmol/kg, contralateral paw, 1 h",1.149 and 1.785 and 1.348 and 0.387 and 0.674 and 1.004
same,"paw withdrawal threshold (von Frey), individual mice","s.c. 10 μmol/kg, contralateral paw, 2 h",0.829 and 1.149 (2×) and 0.891 and 0.939 and 0.725
same,"paw withdrawal threshold (von Frey), individual mice","s.c. 10 μmol/kg, contralateral paw, 3 h",0.551 and 1.09 and 0.939 and 0.539 and 0.767 and 1.149
same,"paw withdrawal threshold (von Frey), individual mice","s.c. 10 μmol/kg, contralateral paw, 4 h",0.767 and 0.939 and 1.09 and 0.829 and 0.906 and 0.551
same,"paw withdrawal threshold (von Frey), individual mice","s.c. 10 μmol/kg, contralateral paw, 6 h",0.683 and 0.767 (2×) and 0.939 and 0.539 and 0.725
same,"paw withdrawal threshold (von Frey), individual mice","s.c. 10 μmol/kg, ipsilateral paw, 1 h",0.323 and 0.356 and 0.539 and 0.565 and 0.387 and 0.551
same,"paw withdrawal threshold (von Frey), individual mice","s.c. 10 μmol/kg, ipsilateral paw, 2 h",0.683 and 0.674 and 0.398 (2×) and 0.906 and 0.767
same,"paw withdrawal threshold (von Frey), individual mice","s.c. 10 μmol/kg, ipsilateral paw, 3 h",0.445 and 0.674 and 0.162 and 0.398 and 0.829 and 0.683
same,"paw withdrawal threshold (von Frey), individual mice","s.c. 10 μmol/kg, ipsilateral paw, 4 h",0.219 and 0.152 and 0.263 and 0.398 and 0.07 and 0.441
same,"paw withdrawal threshold (von Frey), individual mice","s.c. 10 μmol/kg, ipsilateral paw, 6 h",0.089 and 0.107 and 0.228 and 0.162 and 0.07 and 0.145
same,"von Frey paw withdrawal threshold, individual animals (Fig 5B)","dose group 2, contra, time 1",1.4
same,"von Frey paw withdrawal threshold, individual animals (Fig 5B)","dose group 2, contra, time 5",1 (3×) and 1.4 (3×)
same,"von Frey paw withdrawal threshold, individual animals (Fig 5B)","dose group 2, contra, time 24",1.4 (4×) and 1 (2×)
same,"von Frey paw withdrawal threshold, individual animals (Fig 5B)","dose group 2, injured side, time 5",0.4 and 0.16 (2×) and 0.6 and 1 and 0.07
same,"von Frey paw withdrawal threshold, individual animals (Fig 5B)","dose group 2, injured side, time 24",0.16 (2×) and 0.07 (3×) and 0.4
same,"von Frey paw withdrawal threshold, individual animals (Fig 5B)","dose group 10, contra, time 5",1.4 (4×) and 1 (2×)
same,"von Frey paw withdrawal threshold, individual animals (Fig 5B)","dose group 10, contra, time 24",1 (4×) and 1.4 (2×)
same,"von Frey paw withdrawal threshold, individual animals (Fig 5B)","dose group 10, injured side, time 5",1 (2×) and 0.6 and 0.16 (2×) and 0.4
same,"von Frey paw withdrawal threshold, individual animals (Fig 5B)","dose group 10, injured side, time 24",0.07 (4×) and 0.16 (2×)
same,"von Frey paw withdrawal threshold, individual animals (Fig 5B)","dose group 50, contra, time 5",1.4 (2×) and 1 (4×)
same,"von Frey paw withdrawal threshold, individual animals (Fig 5B)","dose group 50, contra, time 24",1.4 (3×) and 1 (3×)
same,"von Frey paw withdrawal threshold, individual animals (Fig 5B)","dose group 50, injured side, time 5",0.07 and 0.16 (2×) and 0.6 (2×) and 1
same,"von Frey paw withdrawal threshold, individual animals (Fig 5B)","dose group 50, injured side, time 24",0.16 (3×) and 0.07 (2×) and 0.4
